# Results as given in the supplement of paper PMC9744312.
# Structures can show the parent of a compound that is named as a salt. Some of the results follow. The data scatter; read single values as rough.
# System: Peyronie's disease tunica albuginea primary fibroblasts
# Test: cell viability (DRAQ5 nuclear stain) relative to TGF-beta1-only control; higher = more viable cells
# Details: 10 µM; TGF-beta1 10 ng/mL; 72 h
row,SMILES,cell viability
1,Cc1ccc(Cl)c(Nc2ccccc2C(=O)O)c1Cl [Meclofenamate Sodium],77.3%
2,CC1=Nc2ccc(Cl)cc2S(=O)(=O)N1 [Diazoxide],91.6%
3,CO[C@@]12[C@H](COC(N)=O)C3=C(C(=O)C(C)=C(N)C3=O)N1C[C@@H]1N[C@@H]12 [Mitomycin C],35.2%
4,Oc1ccc(OCc2ccccc2)cc1 [Monobenzone],87.7%
5,CC(=O)Oc1c(C)c(C)c2c(c1C)CCC(C)(CCC[C@H](C)CCC[C@H](C)CCCC(C)C)O2 (stereo partly specified) [Vitamin E Acetate],92.6%
6,C[C@H]1C[C@H]2[C@@H]3CCC4=CC(=O)C=C[C@]4(C)[C@@]3(F)[C@@H](O)C[C@]2(C)[C@@]1(O)C(=O)CO [Betamethasone],76.2%
7,"CNC(=O)[C@H](Cc1c[nH]c2ccccc12)NC(=O)[C@@H](CC(=O)NO)CC(C)C [Ilomastat (GM6001, Galardin)]",86.7%
8,CC[C@H](C)[C@@H]1NC(=O)[C@H](CCCNC(=N)N)NC(=O)[C@H](CC(=O)O)NC(=O)[C@H](CCSC)NC(=O)[C@H](CCCNC(=N)N)NC(=O)CNC(=O)CNC(=O)[C@H](Cc2ccccc2)NC(=O)[C@@H](NC(=O)[C@H](CO)NC(=O)[C@H](CO)NC(=O)[C@H](CCCNC(=N)N)NC(=O)[C@H](CCCNC(=N)N)NC(=O)[C@H](CC(C)C)NC(=O)[C@@H](N)CO)CSSC[C@@H](C(=O)N[C@@H](CC(N)=O)C(=O)N[C@@H](CO)C(=O)N[C@@H](Cc2ccccc2)C(=O)N[C@@H](CCCNC(=N)N)C(=O)N[C@@H](Cc2ccc(O)cc2)C(=O)O)NC(=O)CNC(=O)[C@H](CC(C)C)NC(=O)CNC(=O)[C@H](CO)NC(=O)[C@H](CCC(N)=O)NC(=O)[C@H](C)NC(=O)CNC1=O [Carperitide Acetate],96.8%
9,COC(=O)N(C)c1c(N)nc(-c2nn(Cc3ccccc3F)c3ncccc23)nc1N [Riociguat (BAY 63-2521)],102%
10,C[C@H](O)C(=O)Nc1c(I)c(C(=O)NC(CO)CO)c(I)c(C(=O)NC(CO)CO)c1I [Iopamidol],88.7%
11,OC[C@H]1O[C@H](O[C@H]2[C@H](O)[C@@H](O)C(O)O[C@@H]2CO)[C@H](O)[C@@H](O)[C@@H]1O (mixture of isomers) [Maltose],94.5%
12,O=C1CC2(CCCC2)CC(=O)N1CCCCN1CCN(c2ncccn2)CC1 [Buspirone HCl],90.4%
13,CC[C@H]1OC(=O)[C@H](C)[C@@H](O[C@H]2C[C@@](C)(OC)[C@@H](O)[C@H](C)O2)[C@H](C)[C@@H](O[C@@H]2O[C@H](C)C[C@H](N(C)C)[C@H]2O)[C@](C)(O)C[C@@H](C)[C@@H]2N[C@@H](COCCOC)O[C@H]([C@H]2C)[C@]1(C)O [Dirithromycin],88.1%
14,N#Cc1cc(-c2n[nH]c(-c3ccncc3)n2)ccn1 [Topiroxostat],91.6%
15,CCCCCCCCCCCCCCCC(=O)O[C@@H]1[C@@H](O)[C@@H](O)[C@@H]([C@H](NC(=O)[C@@H]2C[C@@H](CCC)CN2C)[C@H](C)Cl)O[C@@H]1SC [Clindamycin palmitate HCl],104%
16,CO[C@@]1(NC(=O)CSC[C@@H](N)C(=O)O)C(=O)N2C(C(=O)O)=C(CSc3nnnn3C)CS[C@@H]21 [Cefminox Sodium],118%
17,C[C@H](CCC(=O)O)[C@H]1CC[C@H]2[C@@H]3CC[C@@H]4C[C@H](O)CC[C@]4(C)[C@H]3C[C@H](O)[C@]12C [Deoxycholic acid],80.8%
18,Nc1ccc2cc3ccc(N)cc3nc2c1 [Proflavine Hemisulfate],70.7%
19,CC(=O)N1C[C@H](O)C[C@H]1C(=O)O [Oxaceprol],88.4%
20,O=C([O-])[O-].[Na+].[Na+] [Sodium carbonate],95.3%
21,CCC(=O)c1c(O)cc(O)cc1O [Flopropione],81.7%

row,SMILES,cell viability
1,N#Cc1ccnc(N2C(=O)CC[C@H]2C(=O)N(c2cncc(F)c2)[C@H](C(=O)NC2CC(F)(F)C2)c2ccccc2Cl)c1 [Ivosidenib (AG-120)],103%
2,CNC(=O)c1cnn(-c2nc(N)c3ncn([C@@H]4O[C@H](CO)[C@@H](O)[C@H]4O)c3n2)c1 [Regadenoson],81.2%
3,CO/N=C(\C(=O)N[C@@H]1C(=O)N2C(C(=O)O)=C(Cn3ccc(=N)n3CCO)CS[C@H]12)c1csc(N)n1 [Cefoselis Sulfate],97.1%
4,CC1Cc2ccccc2N1NC(=O)c1ccc(Cl)c(S(N)(=O)=O)c1 (stereo unspecified) [Indapamide],95.3%
5,Nc1ccc(S(=O)(=O)Nc2ccnn2-c2ccccc2)cc1 [Sulfaphenazole],81.1%
6,CN1CCN(CCOc2cc(OC3CCOCC3)c3c(Nc4c(Cl)ccc5c4OCO5)ncnc3c2)CC1 [Saracatinib (AZD0530)],82%
7,O=C(NCC(O)CO)c1c(I)c(C(=O)NCC(O)CO)c(I)c(N(CCO)C(=O)CO)c1I (stereo unspecified) [Ioversol],92%
8,CO/N=C(\C(=O)N[C@@H]1C(=O)N2C(C(=O)O)=C(COC(N)=O)CS[C@H]12)c1ccco1 [Cefuroxime sodium],96.8%
9,O=C1CN2Cc3c(ccc(Cl)c3Cl)N=C2N1 [Anagrelide HCl],88.2%
10,CC(C)NCC(O)COc1ccc(COCCOC(C)C)cc1 (stereo unspecified) [Bisoprolol fumarate],76.9%
11,CN(C)Cc1c(C(=O)NCCOc2ccc(C(=O)NO)cc2)oc2ccccc12,43.8%
12,CN1CC[C@H](c2c(O)cc(O)c3c(=O)cc(-c4ccccc4Cl)oc23)[C@H](O)C1 [Flavopiridol (Alvocidib)],53.2%
13,COc1cc(S(=O)(=O)O)ccc1O [Sulfogaiacol],91.6%
14,Nc1nc(Cl)nc2c1ncn2[C@@H]1O[C@H](CO)[C@@H](O)[C@@H]1F [Clofarabine],63.5%
15,CC(C)C(=O)OCC(=O)[C@@]12O[C@H](C3CCCCC3)O[C@@H]1C[C@H]1[C@@H]3CCC4=CC(=O)C=C[C@]4(C)[C@H]3[C@@H](O)C[C@@]12C [Ciclesonide],75.4%
16,CC(C)[C@H]1C(=O)N[C@@H](CCCN=C(N)N)C(=O)NCC(=O)N[C@@H](CC(=O)O)C(=O)N[C@H](Cc2ccccc2)C(=O)N1C,63.3%
17,Nc1nc(=O)c2nc(CNc3ccc(C(=O)N[C@@H](CCC(=O)O)C(=O)O)cc3)cnc2[nH]1 [Folic acid],94.8%
18,C=C1CC[C@H](O)C/C1=C/C=C1\CCC[C@]2(C)[C@@H]([C@H](C)CCCC(C)(C)O)CC[C@@H]12 [Calcifediol],75.2%
19,CC[C@H]1OC(=O)[C@H](C)[C@@H](O[C@H]2C[C@@](C)(OC)[C@@H](O)[C@H](C)O2)[C@H](C)[C@@H](O[C@@H]2O[C@H](C)C[C@H](N(C)C)[C@H]2O)[C@](C)(O)C[C@@H](C)/C(=N\OCOCCOC)[C@H](C)[C@@H](O)[C@]1(C)O [Roxithromycin],80.6%
20,Nc1nc(F)nc2c1ncn2[C@@H]1O[C@H](CO)[C@@H](O)[C@@H]1O [Fludarabine],81.2%
21,Clc1ccc(C(Cn2ccnc2)OCc2c(Cl)cccc2Cl)c(Cl)c1 (stereo unspecified) [Isoconazole nitrate],88.2%

# An excerpt of these results, with bars between the fields:
row | SMILES | cell viability
5 | Nc1ccc(S(=O)(=O)Nc2ccnn2-c2ccccc2)cc1 [Sulfaphenazole] | 81.1%
6 | CN1CCN(CCOc2cc(OC3CCOCC3)c3c(Nc4c(Cl)ccc5c4OCO5)ncnc3c2)CC1 [Saracatinib (AZD0530)] | 82%
7 | O=C(NCC(O)CO)c1c(I)c(C(=O)NCC(O)CO)c(I)c(N(CCO)C(=O)CO)c1I (stereo unspecified) [Ioversol] | 92%

# (listing goes on)

row,SMILES,cell viability
1,NCCC[C@H](N)C(=O)O [L-Ornithine],90.2%
2,NC(=O)N1c2ccccc2C=Cc2ccccc21 [Carbamazepine],89.3%
3,O=C(CCCCCCNC(=O)c1cnc(N(c2ccccc2)c2ccccc2)nc1)NO [Ricolinostat (ACY-1215)],61.2%
4,NC(CO)(CO)CO [Trometamol],93.1%
5,c1cnc2cc3c(cc2n1)[C@@H]1CNC[C@H]3C1 [Varenicline Tartrate],95.1%
6,CC(=O)OCC(COC(C)=O)OC(C)=O [Triacetin],87.7%
7,CO[C@H]1/C=C/O[C@@]2(C)Oc3c(C)c(O)c4c(c3C2=O)C2=NC3(CCN(CC(C)C)CC3)NC2=C(NC(=O)/C(C)=C\C=C\[C@H](C)[C@H](O)[C@@H](C)[C@@H](O)[C@@H](C)[C@H](OC(C)=O)[C@@H]1C)C4=O [Rifabutin],88.6%
8,C[N+](C)(C)CCO.O=C([O-])C(O)C(O)C(=O)O (stereo unspecified) [Choline bitartrate],88.1%
9,Cn1c(=O)cc(N2CCC[C@@H](N)C2)n(Cc2cc(F)ccc2C#N)c1=O [Trelagliptin],67.1%
10,Cn1c(=O)cc(N2CCC[C@@H](N)C2)n(Cc2cc(F)ccc2C#N)c1=O [Trelagliptin succinate],62.6%
11,C=C1c2cccc(O)c2C(=O)C2=C(O)[C@]3(O)C(=O)C(C(N)=O)=C(O)[C@@H](N(C)C)[C@@H]3[C@@H](O)[C@H]12 [Methacycline HCl],97.3%
12,c1ccc(C2CN3CCSC3=N2)cc1 (stereo unspecified) [Tetramisole HCl],99%
13,CCCN[C@H]1CCc2nc(N)sc2C1 [Pramipexole 2HCl Monohydrate],95%
14,CCCN[C@H]1CCc2nc(N)sc2C1 [Pramipexole dihydrochloride],80.8%
15,CCCN[C@H]1CCc2nc(N)sc2C1 [Pramipexole],92.5%
16,CC(C)(C)Cn1c(N)nc2ccc(-c3[nH]c(C(C)(C)C)nc3-c3ccc(F)cc3)nc21,86.4%
17,O=C(NC1CCN(CCCCC2(C(=O)NCC(F)(F)F)c3ccccc3-c3ccccc32)CC1)c1ccccc1-c1ccc(C(F)(F)F)cc1 [Lomitapide],40.4%
18,O=C(NC1CCN(CCCCC2(C(=O)NCC(F)(F)F)c3ccccc3-c3ccccc32)CC1)c1ccccc1-c1ccc(C(F)(F)F)cc1 [Lomitapide Mesylate],50.4%
19,CCOC(=O)c1ccc(OC(=O)CCCCCNC(=N)N)cc1 [Gabexate Mesylate],93.7%
